These are yes or no findings as the source states them, for the method shown. In cells and extracts the contact can be indirect. Some binding calls cover weakened binding; strength is not graded here.
How the values were obtained:
[1] = biological target: T1, 14-3-3η (rat (endogenous in H9c2)) (UniProt P68511); assay: co-IP; RIPA lysate of H9c2 cells pretreated with TSN for 2 days before A/R injury; immunoprecipitated with anti-14-3-3η, anti-Bcl-2 or anti-VDAC-1 overnight at 4°C, protein A/G plus beads; immunoblotted with anti-Bcl-2 and anti-VDAC-1
T1 sequence: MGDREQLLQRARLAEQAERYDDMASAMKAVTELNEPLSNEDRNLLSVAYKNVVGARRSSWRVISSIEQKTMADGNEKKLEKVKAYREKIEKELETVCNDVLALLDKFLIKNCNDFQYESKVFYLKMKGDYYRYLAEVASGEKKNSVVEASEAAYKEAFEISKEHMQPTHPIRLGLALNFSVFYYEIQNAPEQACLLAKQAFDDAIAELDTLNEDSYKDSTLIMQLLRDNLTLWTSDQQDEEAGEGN

Protein sequences, listed by entry. Tags and fused reporters are not part of them.
UniProt Q9Z2L0: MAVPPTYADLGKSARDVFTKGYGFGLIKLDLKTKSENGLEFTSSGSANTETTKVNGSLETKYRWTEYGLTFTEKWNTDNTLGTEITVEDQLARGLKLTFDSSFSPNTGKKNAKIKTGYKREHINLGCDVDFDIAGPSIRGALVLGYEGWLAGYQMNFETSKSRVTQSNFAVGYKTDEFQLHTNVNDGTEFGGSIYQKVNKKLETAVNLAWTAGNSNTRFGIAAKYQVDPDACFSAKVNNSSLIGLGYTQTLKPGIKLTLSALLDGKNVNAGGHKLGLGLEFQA
UniProt P49950: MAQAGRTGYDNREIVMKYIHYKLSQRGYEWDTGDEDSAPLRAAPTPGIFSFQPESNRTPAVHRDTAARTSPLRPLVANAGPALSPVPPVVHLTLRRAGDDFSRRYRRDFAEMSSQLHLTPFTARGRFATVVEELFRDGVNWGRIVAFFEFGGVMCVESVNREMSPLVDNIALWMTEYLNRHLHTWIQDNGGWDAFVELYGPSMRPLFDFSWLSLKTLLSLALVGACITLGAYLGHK

[2] = biological target: voltage-dependent anion channel 1 (rat (endogenous in H9c2)) (UniProt Q9Z2L0); assay: as above

| Substance | binding [1] | binding [2] |
| --- | --- | --- |
| Bcl-2 (from UniProt P49950 1-236) | binds | binds |
| voltage-dependent anion channel 1 (from UniProt Q9Z2L0 1-283) | binds |  |

— publication PMC6046124
